Data as given in article PMC4281712, “ATPase-dependent auto-phosphorylation of the open condensin hinge diminishes DNA binding” (Open Biology, 2014).
Results are given in words; binding and its absence hold for the method and conditions named. Binding seen in cells or lysates may run through a third protein. Binding calls can cover weak binding; strength is not graded here. Where a sequence is shown, tags or fusion partners need not be part of it.

target: T1, Cut14/SMC2 tagged with 3HA-His6 (wild type) (S. pombe) (UniProt P41003); assay: co-purification by Ni affinity chromatography; Cut3 (wild type, mutant or truncated) and His6-tagged Cut14 overproduced together in S. pombe; complex isolated on Ni-beads through the polyhistidine tag; bands seen by SDS-PAGE with CBB or Ponceau S stain
T1 sequence: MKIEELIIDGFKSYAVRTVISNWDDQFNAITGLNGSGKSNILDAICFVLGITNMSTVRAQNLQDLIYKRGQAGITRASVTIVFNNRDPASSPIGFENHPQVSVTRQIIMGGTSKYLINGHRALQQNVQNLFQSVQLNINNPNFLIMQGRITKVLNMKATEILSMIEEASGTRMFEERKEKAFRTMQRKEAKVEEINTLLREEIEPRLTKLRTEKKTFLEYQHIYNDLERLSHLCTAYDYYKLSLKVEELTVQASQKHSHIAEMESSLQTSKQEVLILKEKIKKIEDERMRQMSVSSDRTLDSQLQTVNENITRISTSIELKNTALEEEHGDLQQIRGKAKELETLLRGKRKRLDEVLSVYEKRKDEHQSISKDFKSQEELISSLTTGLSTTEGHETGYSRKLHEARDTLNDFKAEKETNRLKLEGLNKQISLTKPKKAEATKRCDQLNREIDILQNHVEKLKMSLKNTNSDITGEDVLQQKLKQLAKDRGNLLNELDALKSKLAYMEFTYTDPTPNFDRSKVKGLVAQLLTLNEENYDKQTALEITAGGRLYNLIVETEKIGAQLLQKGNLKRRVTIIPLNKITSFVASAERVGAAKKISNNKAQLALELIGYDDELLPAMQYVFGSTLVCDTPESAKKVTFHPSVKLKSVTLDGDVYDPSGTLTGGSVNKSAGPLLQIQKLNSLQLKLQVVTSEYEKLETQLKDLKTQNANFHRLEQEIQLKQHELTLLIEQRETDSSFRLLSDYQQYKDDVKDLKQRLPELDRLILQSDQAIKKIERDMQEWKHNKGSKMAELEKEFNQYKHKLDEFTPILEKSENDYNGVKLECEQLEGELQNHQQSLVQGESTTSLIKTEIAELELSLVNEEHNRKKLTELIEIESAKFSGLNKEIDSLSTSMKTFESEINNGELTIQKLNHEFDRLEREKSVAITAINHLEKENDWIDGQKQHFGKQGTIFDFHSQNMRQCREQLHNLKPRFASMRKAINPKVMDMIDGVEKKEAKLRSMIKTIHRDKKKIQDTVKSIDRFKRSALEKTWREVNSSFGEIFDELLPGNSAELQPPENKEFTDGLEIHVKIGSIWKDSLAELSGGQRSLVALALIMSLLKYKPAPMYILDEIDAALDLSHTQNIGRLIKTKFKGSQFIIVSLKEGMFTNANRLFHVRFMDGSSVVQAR

Substance	binding
Cut3ΔC (S. pombe) (domain or fragment)	binds
Cut3ΔNC (S. pombe) (domain or fragment)	binds
Cut3ΔN (S. pombe) (domain or fragment)	binds
